In PubChem BioAssay AID504834 (National Center for Advancing Translational Sciences (NCATS), 2011):
“And” between values parts separate entries of the source, which are not always exact repeats. Equal entries are not always repeated. The whole screen tested about 320,000 compounds, of which about 22,000 (6.9%) were called active. The shares of active, inactive and inconclusive entries below differ from those in the screen. Calls come from the whole dose curve; as a rule, active = well fitted inhibition curve with a large enough effect; inconclusive = small, poorly fitted or top-dose-only effect, or another doubt; inactive = no such curve, though single readings can be large or run the other way. A potency beside an inconclusive call is a rough fit, not a confirmed value.

experiment: Primary qHTS for delayed death inhibitors of the malarial parasite plastid, 96 hour incubation; conditions: P. falciparum luciferase reporter growth; series mostly up to 28.7 µM; activity change, negative = inhibition: at the top concentration
Procedure, shortened: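 Erythrocytes infected with luciferase-expressing P. falciparum were dispensed at 2% hematocrit and 0.05% parasitemia (final), then incubated with compounds 96 hours at 37 C in 5% CO2. Luminescence after detection reagent addition reported growth.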
% is set by controls: 0 for no effect and ±100 for the full control effect; potency is the fitted concentration of half-maximal effect.

Row | Structure (SMILES) | Potency | activity change, negative = inhibition
1 | COc1ccc2ccccc2c1CNCc1ccc(C)cc1 | inconclusive: 18.5 µM [inhibitor, single point] | 
2 | COC(=O)C1=C(C)NC(=O)NC1c1ccc(OCC(=O)N2CCCCC2)cc1 (configuration not stated) | inconclusive: 0.586 µM [inhibitor, partial curve, poor fit] | 
3 | O=C(NC1CC1)C1CCN(C2CCN(C(=O)/C=C/c3cccs3)CC2)CC1 | inconclusive: 10.4 µM [inhibitor, single point] | 
4 | O=C(NCCNc1ccc([N+](=O)[O-])cc1)c1ccco1 | inconclusive: 3.7 µM [inhibitor, single point] | 
5 | N#Cc1ccsc1NC(=O)CN1CCN(S(=O)(=O)c2cc(Cl)ccc2Cl)CC1 | active: 4.15 µM | 
6 | C=C1C(=O)O[C@H]2C1CC[C@@](C)(O)C13C=CC(C)(C21)C1(C3)C(=O)O[C@@H]2C3C(C)=CCC3[C@](C)(O)C[C@H](OC(C)=O)C21 (some centres not stated) | inconclusive: 18.5 µM [inhibitor, single point] | 
7 | CC(=O)c1cccc(CN2CCCC(CCC(=O)NCc3ccccc3F)C2)c1 (configuration not stated) | inconclusive: 6.57 µM [inhibitor, partial curve] | 
8 | O=C(CNc1ccc(Cl)cc1)c1ccc(Br)cc1 | inconclusive: 18.5 µM [inhibitor, single point] | 
9 | Cc1ccc(CCN2CC(C(=O)NCCCN3CCC(C)CC3)CC2=O)cc1 (configuration not stated) | inconclusive: 0.37 µM [inhibitor, full curve] | 
10 | CCOC(=O)c1cc(C)sc1NC(=O)CN1CCN(C(=O)C2CCCO2)CC1 (configuration not stated) |  | inactive: 40.3%
11 | COc1cc(N=c2c([N+](=O)[O-])nn(-c3ccc4c(c3)OCCO4)n2O)cc(OC)c1 | inconclusive: 18.5 µM [inhibitor, single point] | 
12 | COc1ccc(C(=O)Nc2nc3cc(OC)c(OC)cc3c(=O)[nH]2)cc1 |  | inactive: -3.15%
13 | Cc1cc(Cl)n2ncc(-c3ccccc3)c2n1 |  | inactive: 284%
14 | O=C(COC(=O)c1ccc([N+](=O)[O-])s1)NCc1ccccc1 | inconclusive: 18.5 µM [inhibitor, single point] | 
15 | Cc1cccc(N2CCN(S(=O)(=O)c3cccs3)CC2)c1C | inconclusive: 18.5 µM [inhibitor, single point] | 
16 | CC(C)Nc1oc(Cc2cccc3ccccc23)nc1C#N |  | inactive: 2.97%
17 | COc1cc(CNc2cc(C)ccc2C)cc(OC)c1OC | inconclusive: 4.15 µM [inhibitor, full curve, poor fit] | 
18 | Cc1ccc(N=Cc2c(O)c3ccccc3oc2=O)cc1F |  | inactive: 5.18%
19 | COC(=O)c1ccc(C(=O)N(C)C2CCCN(Cc3ccccc3F)C2)nc1 (configuration not stated) | inconclusive: 2.94 µM [inhibitor, partial curve, poor fit] | 
20 | C=CCn1c(=O)c2ccccc2n2c(SCC(C)=O)nnc12 |  | inactive: 26.8%
21 | S=c1[nH]nc(COc2ccc(Cl)cc2)n1-c1ccc(Cl)cc1 | inconclusive: 18.5 µM [inhibitor, single point] | 
22 | CC[C@@H]1[C@H]2CCCC(=O)N3CC[C@@H](C[C@@H]1OC(=O)NCc1ccccc1)[C@@H]23 | inconclusive: 13.1 µM [inhibitor, partial curve, poor fit] | 
23 | O=C(O)c1cc(-c2ccccc2)on1 |  | inactive: -12.7%
24 | Cc1noc(C)c1CSc1nc2ccccc2c(=O)n1-c1ccc(F)cc1F | inconclusive: 7.38 µM [inhibitor, partial curve] | 

Row | Structure (SMILES) | Potency | activity change, negative = inhibition
25 | CCN(Cc1ccccc1)S(=O)(=O)c1cc(C(=O)NCC2CCCCC2)ccc1OC | active: 11.7 µM | 
26 | Cc1[nH]nc2c1C(c1cccs1)C1=C(CC(C)(C)CC1=O)N2 (configuration not stated) | inconclusive: 1.31 µM [inhibitor, partial curve, poor fit] | 
27 | O=C(Nc1cccnc1)c1ccc(N2CCOCC2)c([N+](=O)[O-])c1 | inconclusive: 18.5 µM [inhibitor, single point] | 
28 | COc1ccc(/C=C2\C(=N)N3N=C(CC(=O)N4CCCCC4)SC3=NC2=O)cc1 |  | inactive: 12.7%
29 | CCOC(=O)c1c(NC(=O)c2ccccc2N(C)S(=O)(=O)c2ccccc2)sc2c1CCCC2 | inconclusive: 18.5 µM [inhibitor, single point] | 
30 | CCN1CCN(c2ccc(NC(=O)c3cc(S(=O)(=O)N4CCCC4)ccc3Cl)cc2)CC1 | inconclusive: 1.04 µM [inhibitor, full curve, poor fit] | 
31 | C=CCN(C(=O)CCC(=O)Nc1cc(C)on1)C(C(=O)NC1CCCC1)c1ccc(OC)cc1OC (configuration not stated) | inconclusive: 18.5 µM [inhibitor, single point] | 
32 | COc1ccc(-n2nnnc2SCC(=O)Nc2nnc(C)s2)cc1 | inconclusive: 20.8 µM [inhibitor, single point] | 
33 | CC1CCN(C(=O)c2cc(N3C(=O)C4C5CCC(C5)C4C3=O)ccc2Cl)CC1 (configuration not stated) | inconclusive: 11.7 µM [inhibitor, single point] | 
34 | O=C(CCN1C(=O)c2ccccc2S1(=O)=O)Nc1cccc(F)c1 |  | inactive: 5.42%
35 | CCN(Cc1ccccc1)C(=O)c1ccc(CS(=O)c2ccccc2C)o1 (configuration not stated) |  | inactive: -1.5%
36 | COc1ccc(NC(=O)C2CC(c3ccc(Cl)cc3)=NO2)cc1OC (configuration not stated) |  | inactive: 6.55%
37 | Cn1c(NCc2ccco2)nc2c1c(=O)n(Cc1ccc(Cl)c(Cl)c1)c(=O)n2C |  | inactive: -3.49%
38 | Nc1ncccc1C(=O)OCC(=O)N1CCN(S(=O)(=O)c2ccc(Cl)cc2)CC1 | inconclusive: 4.65 µM [inhibitor, partial curve, poor fit] | 
39 | COc1ccccc1NCCC(=O)OCC(=O)NC1CC1 |  | inactive: 0.572%
40 | Cc1nn(C)c(C(=O)NN)c1Cl |  | inactive: -18.8%
41 | Cc1ccc(Oc2ccc(OCC(=O)NC(C)C(=O)O)cc2)cc1 (configuration not stated) | inconclusive: 13.1 µM [inhibitor, single point] | 
42 | Cc1ccc(N2C(=O)CC(Cc3cccc(C)c3)C2=O)cc1 (configuration not stated) | active: 0.294 µM | 
43 | Cc1ccccc1/C(N)=N/OC(=O)c1ccc(F)cc1 | inconclusive: 3.29 µM [inhibitor, partial curve] | 
44 | COCCNc1nc(C)cc(-c2cc(C(=O)NC3CCCC3)on2)n1 |  | inactive: 32.9%
45 | COc1cc(OC)cc(C(=O)N[C@H](C(=O)NCc2ccco2)C(C)C)c1 |  | inactive: 38.8%
46 | CC(C)C(NC(=O)c1ccccc1)C(=O)N/N=C\c1ccco1 (configuration not stated) |  | inactive: 1.73%
47 | COC(=O)c1scc(C)c1-n1ccc(C(=O)C(=O)N(C)C)c1 |  | inactive: 10.6%
48 | FC(F)Sc1ccc(-n2c(-c3ccc(Cl)cc3)c[n+]3c2CCC3)cc1 | inconclusive: 0.147 µM [inhibitor, full curve, poor fit] | 

In the list so far, these contain two or more sulfur atoms.
Row | Structure (SMILES) | Potency | activity change, negative = inhibition
5 | N#Cc1ccsc1NC(=O)CN1CCN(S(=O)(=O)c2cc(Cl)ccc2Cl)CC1 | active: 4.15 µM | 
15 | Cc1cccc(N2CCN(S(=O)(=O)c3cccs3)CC2)c1C | inconclusive: 18.5 µM [inhibitor, single point] | 
29 | CCOC(=O)c1c(NC(=O)c2ccccc2N(C)S(=O)(=O)c2ccccc2)sc2c1CCCC2 | inconclusive: 18.5 µM [inhibitor, single point] | 
32 | COc1ccc(-n2nnnc2SCC(=O)Nc2nnc(C)s2)cc1 | inconclusive: 20.8 µM [inhibitor, single point] | 

Later entries

Row | Structure (SMILES) | Potency | activity change, negative = inhibition
49 | COc1ccc(NC(=O)O/N=C/c2ccncc2)cc1 |  | inactive: 140%
50 | Cc1cc2c(=O)n(CC(=O)N3CCN(c4ccc(F)cc4)CC3)cnc2s1 |  | inactive: 178%
51 | CC(Oc1cccc(Cl)c1)C(=O)NC1CC(C)(C)NC(C)(C)C1 (configuration not stated) | inconclusive: 10.4 µM [inhibitor, single point] | 
52 | Cc1ccc(Cl)cc1N1CCN(S(=O)(=O)c2cn(C)cn2)CC1 | inconclusive: 11.7 µM [inhibitor, partial curve] | 
53 | CC(NC(=O)/C(C#N)=C/c1ccc([N+](=O)[O-])o1)c1ccccc1 (configuration not stated) |  | inactive: 10.4%
54 | O=c1[nH]c(=O)n(-c2cc(Br)c(O)c(Br)c2)cc1Br | inconclusive: 18.5 µM [inhibitor, single point] | 
55 | ClC1(Cl)CC1Cn1c(C2CC2)nc2ccccc21 (configuration not stated) | inconclusive: 4.15 µM [inhibitor, partial curve] | 
56 | CCOC(=O)c1cnc(-n2nc(C)cc2C)nc1Nc1ccc(N(C)C)cc1 | active: 3.29 µM | 
57 | O=C1C=C(c2cnc3ccccc3c2)C[C@@H](c2ccc3c(c2)OCO3)C1 |  | inactive: -18.1%
58 | Cn1cnc(S(=O)(=O)Nc2ccc(C(F)(F)F)cc2)c1 |  | inactive: 0.128%
59 | Cc1occc1C(=O)NNC(=O)Cc1ccccc1 | inconclusive: 14.7 µM [inhibitor, partial curve, poor fit] | 
60 | Cc1cc(=O)n2[nH]c(-c3ccc(C(C)(C)C)cc3)cc2n1 | active: 2.08 µM and active: 4.65 µM | 
61 | CC(Sc1nnc2ccccn12)C(=O)NCc1ccc2c(c1)OCO2 (configuration not stated) |  | inactive: -2.24%
62 | CCC(C)(C(=O)NC1CCCCC1)N(CC1CCCO1)C(=O)Cc1cccs1 (configuration not stated) | inconclusive: 8.28 µM [inhibitor, partial curve, poor fit] | 
63 | COc1ccc2oc(=N)c(C(=O)Nc3cccc(C)c3C)cc2c1 | inconclusive: 18.5 µM [inhibitor, single point] | 
64 | Cc1cc(C(=O)CSc2n[nH]c(N)n2)c(C)n1-c1ccc(F)cc1 | inconclusive: 18.5 µM [inhibitor, single point] | 
65 | O=C(N/N=C/c1ccc([N+](=O)[O-])o1)c1cccc(S(=O)(=O)N2CCOCC2)c1 | inconclusive: 1.17 µM [inhibitor, partial curve, poor fit] | 
66 | CSCCC(C)N1CCC(Oc2ccc(C(=O)N3CCCC3)cc2)CC1 (configuration not stated) | inconclusive: 18.5 µM [inhibitor, single point] | 
67 | CCCC1=Nc2cc(C(=O)NCCCOCC)ccc2Sc2ccccc21 | active: 13.1 µM | 
68 | Cc1ccc(C)c(S(=O)(=O)N2CCCC2CNC(=O)C(=O)NCc2ccccc2)c1 (configuration not stated) | inconclusive: 18.5 µM [inhibitor, single point] | 
69 | Cn1cccc1/C=C1\C(=O)NC(=O)N(Cc2ccco2)C1=O |  | inactive: 2.12%
70 | CCCN1CNC(=S)N(c2ccccc2OCC)C1 | inconclusive: 5.22 µM [inhibitor, partial curve, poor fit] | 
71 | O=C(CCCCC(=O)N1CCN(c2ccccc2)CC1)N1CCN(c2ccccc2)CC1 | inconclusive: 4.15 µM [inhibitor, single point] | 
72 | COc1ccccc1NS(=O)(=O)c1ccc(Cl)c(NC(=O)c2sc3cc(Cl)ccc3c2Cl)c1 |  | inactive: -7.43%
